The text below walks through data of PubChem BioAssay AID1511 (Johns Hopkins Ion Channel Center, 2009).

Sequences of proteins named here, by UniProt entry; tags and fusion partners are left off. A change or cut given only in a name is not applied to a line headed by its entry.
UniProt Q12809: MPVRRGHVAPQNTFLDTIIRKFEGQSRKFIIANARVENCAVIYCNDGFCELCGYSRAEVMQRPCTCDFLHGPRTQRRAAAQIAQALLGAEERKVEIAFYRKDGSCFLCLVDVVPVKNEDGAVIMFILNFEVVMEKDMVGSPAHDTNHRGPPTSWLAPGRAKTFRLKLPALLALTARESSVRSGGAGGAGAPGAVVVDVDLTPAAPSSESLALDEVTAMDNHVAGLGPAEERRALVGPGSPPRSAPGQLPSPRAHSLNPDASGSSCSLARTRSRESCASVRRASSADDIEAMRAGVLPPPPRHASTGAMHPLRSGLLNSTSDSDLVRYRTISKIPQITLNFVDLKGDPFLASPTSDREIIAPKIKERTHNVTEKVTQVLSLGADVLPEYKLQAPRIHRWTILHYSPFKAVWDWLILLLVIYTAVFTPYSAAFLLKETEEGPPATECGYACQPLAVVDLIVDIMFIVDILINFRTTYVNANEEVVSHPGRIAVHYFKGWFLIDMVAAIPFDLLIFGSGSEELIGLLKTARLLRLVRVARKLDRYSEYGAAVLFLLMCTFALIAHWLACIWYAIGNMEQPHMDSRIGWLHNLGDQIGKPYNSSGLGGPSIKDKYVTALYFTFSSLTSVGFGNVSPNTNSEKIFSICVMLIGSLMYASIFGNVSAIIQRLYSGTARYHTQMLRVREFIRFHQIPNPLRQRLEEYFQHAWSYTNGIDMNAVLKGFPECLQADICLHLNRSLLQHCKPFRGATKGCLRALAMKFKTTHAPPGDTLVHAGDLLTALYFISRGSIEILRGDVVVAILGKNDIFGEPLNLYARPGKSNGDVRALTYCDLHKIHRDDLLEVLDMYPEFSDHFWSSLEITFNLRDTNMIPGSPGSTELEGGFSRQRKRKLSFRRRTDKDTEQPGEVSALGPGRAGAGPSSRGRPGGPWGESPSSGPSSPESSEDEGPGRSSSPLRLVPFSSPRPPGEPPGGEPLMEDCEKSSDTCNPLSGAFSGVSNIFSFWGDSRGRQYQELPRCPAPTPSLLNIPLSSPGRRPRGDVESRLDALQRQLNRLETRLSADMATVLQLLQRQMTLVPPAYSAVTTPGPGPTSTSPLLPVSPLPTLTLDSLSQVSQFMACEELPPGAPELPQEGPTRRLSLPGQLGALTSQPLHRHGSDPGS

The list shows a part of the results, in another mix than the full data. Activity calls are given as the source filed them.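 The calls were made as follows: active = activation above the mean of controls blocked by dofetilide plus 5 SD; inactive = the rest.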

The assay addresses Voltage-gated inwardly rectifying potassium channel KCNH2 (Homo sapiens) (UniProt Q12809). Briefly: compounds relieving dofetilide block of hERG – cell-based, CHO-hERG, FluxOR thallium flux, dofetilide IC70, primary screen (AID 1511).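 Also: thallium influx through hERG after potassium depolarization seen as dye fluorescence rise.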 Particulars: dofetilide IC70 present, at 10 µM, active compounds read high. On the technique in general: hERG is a cardiac potassium channel; its block is linked to QT prolongation.
Take `COC(=O)c1ccc(CNC(=O)CSc2nc3sc(C)c(C)c3c(=O)n2C)o1`: the activation (rescue from dofetilide block), less the hit threshold was active: 5.08%.
